Several values for one entry are separate records, joined by “and”; a condition that tells them apart may be missing. Equal values may be shown once. About 7,500 (2.1%) of roughly 360,000 compounds were called active. The inconclusive results got no clear call from the source; some entries with a clear call stand among them for comparison. The call rests on the fitted dose curve; in most records, active means well fitted inhibition curve with a large enough effect; inconclusive means small, poorly fitted or top-dose-only effect, or effect the other way; inactive means flat fitted curve, though single readings scatter. Where the call is inconclusive, the potency comes from a doubtful curve fit. More than one record can exist for a structure, and the calls need not agree.
Assay: Nrf2 qHTS screen for inhibitors; further: nearly all actives have a fitted effect of over 60% in size
Settings: A549 ARE-Fluc reporter, luciferase luminescence, 18-24 h; activity change, negative = inhibition: at 46 µM (top of the series)
In short: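 Cells were seeded and rested 2 h, then exposed to compounds for 18-24 h. CellTiter-Fluor was read first as a viability measure. BugLite was added 15 min before the final luminescent read of ARE-luciferase activity in A549 cells.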
On the % scale 0 is the no-effect control and ±100 the full control effect; potency means the concentration at half of the fitted maximal effect.

SMILES	activity change, negative = inhibition	Potency
C[C@H]1CCCC(=O)CCC/C=C/c2cc(O)cc(O)c2C(=O)O1	inactive: 3.49%	–
Cc1cccc(N2C(=O)/C(=C/N3CCN(C(=O)c4ccco4)CC3)C(=O)NC2=S)c1	inactive: 8.85%	–
O=C(CCN1CCN(CCO)CC1)N1c2ccccc2Sc2ccc(C(F)(F)F)cc21	inactive: -16.6%	–
C=C(C)Cn1c(-c2cccc([N+](=O)[O-])c2)n[nH]c1=S	–	inconclusive: 29.1 µM [falling, single point]
Cc1ccc2nc(N3CCN(C)CC3)[nH]c2c1	–	inconclusive: 8.2 µM [activator, partial curve, poor fit]
COc1ccc(Nc2cc(C)c3cc(NC(=O)c4ccccc4Cl)ccc3n2)cc1	–	active: 25.9 µM
COC(=O)C1=C(c2ccc(F)cc2OCc2ccccc2)C[C@@H]2CC[C@H]1N2C(=O)NCCOc1ccccc1Cl	–	inconclusive: 23.1 µM [falling, single point]
COC(=O)C1=C(c2ccc(OCc3ccccc3)cc2)C[C@@H]2CC[C@H]1N2C(=O)NCc1ccc([N+](=O)[O-])cc1	–	inconclusive: 23.1 µM [falling, single point]
O=C1/C(=C/c2ccncc2)N2CCC1CC2	–	inconclusive: 32.6 µM [activator, single point]
COc1ccc(NC(=O)O/N=C/c2ccccc2)cc1	–	inconclusive: 11.6 µM [activator, partial curve]
O=C(NC1CCCCC1)C1CCN(C(=O)c2ccc(-c3ccccc3)cc2)CC1	–	inconclusive: 14.6 µM [falling, partial curve, poor fit]
c1ccc(-c2cc(-c3ccccc3)[n+](-c3ccccc3)c(-c3ccccc3)c2)cc1	–	inconclusive: 29.1 µM [falling, single point]
CSc1ccc(CN2CCN(C(=O)COc3ccc(C)cc3)CC2)cc1	–	inactive and active: 20.6 µM
COC(=O)[C@@H]1C(OC(=O)c2ccccc2)CC2CCC1N2C (some centres undefined)	inactive: 0.299%	–
CC(C)N(C(=O)CCl)c1ccccc1	–	inconclusive: 32.6 µM [falling, single point]
Cn1c(O)c(C(=N)COc2ccccc2)c(=O)n(C)c1=O	–	inconclusive: 18.4 µM [activator, partial curve]
CCCCn1c(O)c(C(CC)=NCCc2ccccc2)c(=O)[nH]c1=O	–	inconclusive: 20.6 µM [falling, single point]
NC(=O)Nc1ccc(C(=O)OCC(=O)Nc2ccc(Cl)cc2C(=O)c2ccccc2)cc1	inactive: 0.0233%	–
O=C(c1cccc2ccccc12)C1CCCN(C2CCC2)C1 (centres undefined)	–	inconclusive: 5.8 µM [activator, single point]
Cc1cc(-c2nc3ncccc3o2)ccc1NC(=O)c1ccccc1Br	–	inconclusive: 29.1 µM [activator, single point]
COc1cccc(-c2nc3ccc(N4CCN(C)CC4)cc3[nH]2)c1	–	inconclusive: 23.1 µM [falling, partial curve, poor fit]
Cc1cccc(NP(=O)(Oc2ccccc2F)Oc2ccccc2F)c1	inactive: -25%	–
CC(=O)Nc1ccccc1C(=O)OCC(=O)c1ccc2ccccc2c1	–	inconclusive: 29.1 µM [falling, partial curve, poor fit]

SMILES	activity change, negative = inhibition	Potency
COC(=O)C1=C(c2ccc(-c3ccccc3)c(F)c2)C[C@@H]2CC[C@H]1N2C(=O)NCc1ccc(F)cc1	–	inconclusive: 20.6 µM [falling, single point]
Cc1ccc(-n2nc(C)cc2NC(=O)COc2cc(C)cc3oc(=O)c4c(c23)CCC4)cc1	–	inconclusive: 29.1 µM [falling, single point]
Oc1ccc(-[n+]2c(-c3ccccc3)cc(-c3ccccc3)cc2-c2ccccc2)cc1	inactive: -21.4%	–
O=C(CCCc1nc(-c2ccc(Cl)cc2)no1)NCC1CCCO1 (centres undefined)	–	active: 13 µM
CC(C)COP(=O)(c1ccc(N(C)C)cc1)C(Nc1ccccc1)c1ccccc1 (centres undefined)	–	inconclusive: 29.1 µM [falling, single point]
CCOC(=O)c1ncn2c1CN(C)C(=O)c1cc(F)ccc1-2	–	active: 2.06 µM
O=[N+]([O-])c1ccc(N2CCCC2)cc1N/N=C1\CN2CCC1CC2	inactive: -22.9%	–
CC(C)Oc1cccc(NC(=O)c2cccn(Cc3ccc4c(c3)OC(F)(F)O4)c2=O)c1	–	inconclusive: 23.1 µM [falling, single point]
O=c1[nH]c(=O)n(Cc2ccc(F)cc2)c(O)c1C=Nc1ccc(Cl)cc1	–	inconclusive: 3.66 µM [activator, partial curve, poor fit]
COC(=O)C1=C(c2ccc(F)cc2OCc2ccccc2)C[C@@H]2CC[C@H]1N2C(=O)NCc1ccc(Cl)cc1	–	active: 23.1 µM
CCCCCn1c(N)c(C(=O)NCc2cccs2)c2nc3ccccc3nc21	–	inconclusive: 23.1 µM [falling, single point]
Nc1c(C(=O)OC2CCCCC2)c2nc3ccccc3nc2n1CC1CCCO1 (centres undefined)	–	active: 23.1 µM
O=[N+]([O-])c1ccccc1-c1cc(-c2ccccc2)cc(-c2ccccc2)[n+]1Cc1ccccc1Cl	–	active: 20.6 µM
Nc1ccccc1C(=O)OCC(=O)N1CCc2ccccc21	–	inconclusive: 20.6 µM [activator, single point]
Nc1c(C(=O)NCCc2ccccc2)c2nc3ccccc3nc2n1CCN1CCOCC1	inactive: 0.139%	–
O=P(Nc1cccc(Cl)c1)(Oc1ccccc1)Oc1ccccc1	–	inconclusive: 29.1 µM [falling, single point]
COc1ccc(C(=O)Nc2sc3c(c2C(=O)O)CC(C)(C)OC3)cc1	–	active: 8.2 µM
CCc1ccc(NC(=O)CCNC(=O)N2C[C@H]3C[C@@H](C2)c2cccc(=O)n2C3)cc1	inactive: 3.72%	–
CCOc1ccccc1N1C(=O)NC(=O)/C(=C/c2ccc3c4c(cccc24)CC3)C1=O	inactive: 3.63%	–
O=C1c2cccc3cccc(c23)C(=O)N1/N=C/c1c(O)n(-c2ccccc2)c(=O)[nH]c1=O	inactive: 4.39%	–
COc1ccccc1C=C1C(=O)NC(=S)NC1=O	inactive: -21.1%	–
COc1ccc(N2CCN(c3ncnc4c3nc3n4CCCCC3)CC2)cc1	–	active: 16.4 µM
COC(=O)C1=C(c2ccc3ccccc3c2)C[C@@H]2CC[C@H]1N2C(=O)NCc1ccc(C(F)(F)F)cc1	–	active: 23.1 µM

SMILES	activity change, negative = inhibition	Potency
NCCc1ccc(S(=O)(=O)F)cc1	–	inconclusive: 6.51 µM [falling, full curve, poor fit]
CCOc1cccc(=NC2CCCCC2)c2c(C)n(C)c(C)c12	–	active: 16.4 µM
O=C(c1ccc2nc3ccc(Cl)cc3c(=O)n2c1)N1CCC2(CC1)OCCO2	–	inconclusive: 9.2 µM [activator, partial curve, poor fit]
Cc1cccc(-n2c(/C=C/c3c(C)[nH]c4ccccc34)nc3ccccc3c2=O)c1	–	inconclusive: 2.31 µM [falling, full curve]
O=C(c1ccc2c(c1)ncn2C1CCCCC1)N1CCC2(CC1)OCCO2	inactive: -0.715%	–
CC12CCC(=O)C=C1CC(N1CC1)C1C2CCC2(C)C(O)CCC12 (centres undefined)	–	inconclusive: 23.1 µM [falling, single point]
COc1cc(C(c2c(O)c3ccccc3oc2=O)c2c(C)n(C)n(-c3ccccc3)c2=O)ccc1OCC(=O)O (centres undefined)	–	inconclusive: 0.58 µM [activator, partial curve, poor fit]
Cc1ccc(Sc2ccc(N3CCCC(C(=O)Nc4ccc(Cl)cc4)C3)nn2)cc1 (centres undefined)	–	inconclusive: 29.1 µM [falling, single point]
O=C(c1cc(F)ccc1F)C1CCCN(Cc2ccc3nonc3c2)C1 (centres undefined)	–	inconclusive: 18.4 µM [falling, partial curve]
CC(C)(C)n1ncc2c(=O)n(Cc3cccc(Cn4cnc5c(cnn5C(C)(C)C)c4=O)c3F)cnc21	–	active: 5.17 µM
CC1Oc2cc3c(-c4c(O)cc(O)c5c(O)c6c(cc45)OC(C)C(C)C6=O)c(O)cc(O)c3c(O)c2C(=O)C1C (centres undefined)	–	active: 4.61 µM
Cc1cccc(-c2nc3ccc(C(=O)N4CCC5(CC4)OCCO5)cc3nc2-c2cccc(C)c2)c1	–	inconclusive: 18.4 µM [falling, partial curve, poor fit]
Cc1ccc(S(=O)(=O)N(C)N=O)cc1	–	inconclusive: 6.51 µM [falling, partial curve, poor fit]
Cc1ccc(Cn2c(C)c3cnn(CC(=O)N4CCC5(CC4)OCCO5)c(=O)c3c2C)cc1	–	inconclusive: 16.4 µM [falling, partial curve]
COC(=O)C1=C(c2ccc(F)cc2OCc2ccccc2)C[C@@H]2CC[C@H]1N2C(=O)NCCOc1ccc(OC)cc1	–	active: 23.1 µM
COc1ccc(CN2C(=O)NC(=O)/C(=C/c3ccc([N+](=O)[O-])s3)C2=O)cc1	inactive: -20.5%	–
O=Cc1cn(Cc2cccc([N+](=O)[O-])c2)c2ccccc12	inactive: -14.2%	–
CCC(=NCCc1c[nH]c2ccccc12)c1c(O)n(-c2ccc(C)cc2)c(=O)[nH]c1=O	–	inconclusive: 20.6 µM [falling, partial curve, poor fit]
CN(C)C(Cc1ccc(C#N)cc1)C(=O)c1ccccc1 (centres undefined)	inactive: 4.06%	–
OCc1cccc[n+]1CCc1ccccc1	–	active: 7.31 µM
CCC(C)NC(=O)c1c(N)n(Cc2ccc3c(c2)OCO3)c2nc3ccccc3nc12 (centres undefined)	–	inconclusive: 16.4 µM [falling, partial curve, poor fit]
COc1ccc(-[n+]2c(-c3ccccc3)cc(-c3ccc(C)cc3)cc2-c2ccccc2)cc1	–	active: 20.6 µM
CC(C)OCCCNC(=O)c1c(N)n(CC2CCCO2)c2nc3ccccc3nc12 (centres undefined)	–	inconclusive: 20.6 µM [falling, single point]

Sorted by length of the SMILES (smallest number first): some entries from above.
SMILES	activity change, negative = inhibition	Potency
NCCc1ccc(S(=O)(=O)F)cc1	–	inconclusive: 6.51 µM [falling, full curve, poor fit]
Nc1c(C(=O)OC2CCCCC2)c2nc3ccccc3nc2n1CC1CCCO1 (centres undefined)	–	active: 23.1 µM
O=C(CCN1CCN(CCO)CC1)N1c2ccccc2Sc2ccc(C(F)(F)F)cc21	inactive: -16.6%	–
Cc1ccc(-n2nc(C)cc2NC(=O)COc2cc(C)cc3oc(=O)c4c(c23)CCC4)cc1	–	inconclusive: 29.1 µM [falling, single point]
CCC(=NCCc1c[nH]c2ccccc12)c1c(O)n(-c2ccc(C)cc2)c(=O)[nH]c1=O	–	inconclusive: 20.6 µM [falling, partial curve, poor fit]

Reference: PubChem BioAssay AID504444 (National Center for Advancing Translational Sciences (NCATS), 2011)
